This is an account of results in patent US20060051395A1 (AFFINERGY, published 2006).

To fix the notation:
T1: Bone Morphogenic Protein 2 (BMP-2) (UniProt P12643)
T1 sequence (looked up): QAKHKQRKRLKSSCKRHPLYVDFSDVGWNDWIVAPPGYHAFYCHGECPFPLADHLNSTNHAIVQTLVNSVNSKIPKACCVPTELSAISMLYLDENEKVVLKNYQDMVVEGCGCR

These are yes or no findings as the source states them, for the method shown. Some results given as binding are weak or reduced against the parent protein; the word gives no strength.

The first assay concerns the target T1, Bone Morphogenic Protein 2 (BMP-2). Briefly: phage ELISA on BMP-2, A405 against microliters of phage; order of signal at 0.10 microliters of phage (3rd of 9 lines).
As for SSGRYVSLPLKGEVVPQTASR [AP02-41], the binding result is listed as “binds”.

Another assay shares this target. Briefly: phage ELISA on biotinylated BMP-2 on streptavidin plates, anti-M13-HRP.
For SSVGQMGWEAFESLSGTGGSR [AP02-24], the binding entry is “binds”.

On to SSEGGVGFPLKGIPQEAWASR [AP02-42], for which the binding result was “binds”. On the same count and under the same terms, the result for SSGKPLEFPLRGTLAEWPVSR [AP02-32] reads “binds”.

On to SSEVVEPWEWWVALERAGGSR [AP02-21], for which the binding entry is “binds”. The same measure, in the same setting: the result for SSEGVGGFPLKGIPQEAWASR [AP02-28] reads “binds”. Same read-out and setting: the result for SRDGGSFSAFSSLVWAADSSR [AP02-52] reads “binds”; that for SSVAWDAFTVFESLEGVATSR [AP02-20], “binds”. As to SRVSGVAAWEAFAGLSVSSSR [AP02-51], the binding result is reported as “binds”. Same read-out and setting: the result for SSSNSLWFPLRGSTVEVGASR [AP02-35] reads “binds”.

In the case of SSGRYVSLPLKGEVVPQTASR [AP02-41], the binding entry is recorded as “binds”. Still for that read-out and setting: then SSEGWVHFPLKGDVMGGPFSR [AP02-40], with “binds”; and SSADLGVSGSWEGFALMRGSR [AP02-23], with “binds”. Same read-out and setting: then SSGLALGLPIKGWTVSGKDSR [AP02-38], with “binds”; and SSGPALRLPLRGTVVSDVPSR [AP02-36], with “binds”; and SRVAAVSWEFFGSLSSAGVSR [AP02-22], with “binds”.

Regarding SSGYTLGFPLSGQTIKDWPSR [AP02-39], the binding entry is given as “binds”.

Regarding SSVAGDVGSSWAAFASLAASR [AP02-53], the binding entry was “binds”. Regarding SSYFDVFSSMTGTRAAGSWSR [AP02-26], the binding result was “binds”. Same read-out and setting: then SSLGQTGWEAFESLSGTRGSR [AP02-19], with “binds”; and SRGEALGFPLTGQLMEAAESR [AP02-33], with “binds”.

Regarding SSMWDVGFPLKGRWIDGADSR [AP02-34], the binding result was “binds”. Regarding SSGGIASLKYDVVKTWESR [AP02-44], the binding result is given as “binds”. For SSGGFVPFPLRGEVWDGVHSR [AP02-30], the binding entry is “binds”. On the same count and under the same terms, then SSAYSVFSSLRADNSGGAVSR [AP02-27], with “binds”; and SRVDSVNFPLRGETVTSMVSR [AP02-43], with “binds”; and SSEGSLSFPLKGQVYSGWGSR [AP02-31], with “binds”. Still for that read-out and setting: the result for SSSVDLYFPLKGDVVSR [AP02-59] reads “binds”; that for SSGQGETWEWFAGMRGSVASR [AP02-25], “binds”.

On to SRDGAGAAAWGAFSALASESR [AP02-49], for which the binding entry is on record as “binds”.

The next assay has the same target. The assay can be described thus: phage ELISA on BMP-2, A405 against microliters of phage; order of signal at 0.10 microliters of phage (4th of 9 lines).
On to SSYFDVFSSMTGTRAAGSWSR [AP02-26], for which the binding entry is reported as “binds”.

A further assay has the same target. Briefly: phage ELISA on BMP-2, A405 against microliters of phage; order of signal at 0.10 microliters of phage (2nd of 9 lines).
As to SSEGWVHFPLKGDVMGGPFSR [AP02-40], the binding entry is recorded as “binds”.

Another assay shares this target. The assay can be described thus: phage ELISA on BMP-2, A405 against microliters of phage; order of signal at 0.10 microliters of phage (1st of 9 lines).
In the case of SSGAWESFSSLSGSS [AP02-61], the binding entry was “binds”.

A further assay shares this target. Briefly: collagen sponge retention assay; IFBM premixed with BMP, sponge washed, retained BMP detected with anti-BMP antibody (FIG. 5).
Take DVNSIWMSRVIEWTYDSGSSGKSSSVDLYFPLKGDVVSR (C-terminal amide (-NH2)) [IFBM AFF7010 (0016-2012)]: the binding result is reported as “binds”.

On to DVNSIWMSRVIEWTYDSGSSGKSRSSDSAFSSFSALEGSVVSR (C-terminal amide (-NH2)) [IFBM AFF7008 (0016-2006)], for which the binding result is listed as “binds”. On the same count and under the same terms, the result for DVNSIWMSRVIEWTYDSGSSGKSSDWGVVASAWDAFEALDASR (C-terminal amide (-NH2)) [IFBM AFF7017 (0016-2011)] reads “binds”.

Another assay has the same target. Briefly: solution-phase binding assay, A405 against picomoles of BMP; order of signal (4th of 6 lines).
For the molecule SSFEPLRFPLKGVPVSR (biotin on the epsilon amino group of a lysine residue at the C-terminus) [AFF-2009], the binding entry is “binds”.

The target is the same in another assay. The assay can be described thus: collagen sponge retention assay, two-dimensional dose response of IFBM and BMP (FIG. 6A-6D).
DVNSIWMSRVIEWTYDSGSSGKSSSVDLYFPLKGDVVSR (C-terminal amide (-NH2)) [IFBM AFF7010 (0016-2012)]: the binding result is recorded as “binds”. Regarding DVNSIWMSRVIEWTYDSGSSGKSSFEPLRFPLKGVPVSR (C-terminal amide (-NH2)) [IFBM AFF7006 (0016-2009)], the binding result was “binds”. The same measure, in the same setting: then SSFEPLRFPLKGVPVSRGSSGKDVNSIWMSRVIEWTYDS (C-terminal amide (-NH2)) [IFBM AFF7005 (2009-0016)], with “binds”. Still for that read-out and setting: then SSSVDLYFPLKGDVVSRGSSGKDVNSIWMSRVIEWTYDS (C-terminal amide (-NH2)) [IFBM AFF7009 (2012-0016)], with “binds”.

The target is the same in the next assay. The assay can be described thus: phage ELISA on BMP-2, A405 against microliters of phage; order of signal at 0.10 microliters of phage (7th of 9 lines, just above mAEK vector).
As to SSGGIASLKYDVVKTWESR [AP02-44], the binding result is reported as “binds”.

For another assay the target is unchanged. The assay can be described thus: phage ELISA on BMP-2.
As to SSADRVAWPLKGAPVWVKESR [AP02-37], the binding result is “no binding”.

The next assay shares this target. Briefly: solution-phase binding assay, A405 against picomoles of BMP; order of signal (6th of 6 lines).
As for SSSVDLYFPLKGDVVSR (biotin on the epsilon amino group of a lysine residue at the C-terminus) [AFF-2012], the binding result is reported as “binds”.

The next assay has the same target. Briefly: phage ELISA on BMP-2, A405 against microliters of phage; order of signal at 0.10 microliters of phage (6th of 9 lines).
Take SSSVDLYFPLKGDVVSR [AP02-59]: the binding result was “binds”.

A further assay shares this target. Briefly: phage ELISA on BMP-2, A405 against microliters of phage; order of signal at 0.10 microliters of phage (5th of 9 lines).
For SSSNSLWFPLRGSTVEVGASR [AP02-35], the binding entry is recorded as “binds”.
